This note sets out measurements from patent publication US6242442A (Alcon Laboratories, Inc., priority 2000, dated 2001).

The data set is described as follows: Acid-base balance and arterial gases, one-week multidose topical crossover study in rabbits. In kind it is in vivo, Dutch-Belted rabbits. The settings on record: 2% suspension topical. On the procedure:
Treatment measurements were made 90 minutes after the last dose on day eight. Optic nerve head blood flow and measured systemic variables were not changed by vehicle treatment. […] It is established that the vasculature of the ONH responds to increases in arterial O2 or CO2 tension by a reduction or an enhancement of ONH blood flow respectively.

Turning to `CCN[C@H]1CN(CCCOC)S(=O)(=O)c2sc(S(N)(=O)=O)cc21` [brinzolamide, R-(+)-4ethylamino-3,4-dihydro-2-(3-methoxy)propyl-2H thieno[3,2,e]1,2thiazene-6sulfonamide-1,1dioxide], the “arterial CO2 tension” value was “below” and the “arterial O2 tension” value is reported as “above baseline levels”.
